In patent publication US20230014181A1, “CULTURE SYSTEM AND METHODS FOR IMPROVED MODELING OF NEUROLOGICAL CONDITIONS” (Genentech, Inc., priority 2021, published 2023):
Where a name gives a salt, the structure may show the parent alone. At least one read-out could not be matched to a standard name with certainty. At least one compound was matched to its structure with a doubt left.

Test system: Aβ42 oligomer-induced neural toxicity in human iPSC neurons
Test: Hit validation by IC50 curves in double culture (MAP2, Synapsin 1/2, CUX2, NFL-H)
Type: cell-based
Protocol: (§1) Error bars+/−s.e.m. and n=4 wells. IC50 curves were fitted by Prism software.
as §1
Error bars+/−s.e.m. and n=4 wells. IC50 curves were fitted using Prism software.
To further validate this pathway, several known inhibitors of kinases in the DLK signaling pathway were tested to determine whether they could also be neuroprotective in the AD model.

Q: With `CN1CCN(CCOc2cc(OC3CCOCC3)c3c(Nc4c(Cl)ccc5c4OCO5)ncnc3c2)CC1` [Saracatinib (AZD0530), Saracatinib] as the compound, how does the “validation of screen hit by IC50 curves” value read?
A: The value was “confirmed with IC50 curves”.

Q: For `COc1cccc(/C=N/N(C(=O)C(F)(F)F)c2ccc(C)cc2C)c1` [J147], which “validation of screen hit by IC50 curves” value is on record?
A: Its value is “validated with IC50 curves”.

Q: Which “validation of screen hit by IC50 curves” value does the source give for `CN(C)[C@@H]1C(O)=C(C(N)=O)C(=O)[C@@]2(O)C(O)=C3C(=O)c4c(O)ccc(Cl)c4[C@@H](O)[C@H]3C[C@@H]12` [Demeclocydine hydrochloride, Demeclocycline hydrochloride] here?
A: The value was “validated with an IC50 curve”.
